Data from the supplement of paper PMC3334620.
In all, about 33,000 sequences were measured (“E-score (-0.5 to 0.5)”: median about -0.0059, highest 2% from about 0.26 on). Some of the results follow.

Molecular target: T1, Cin5 (UniProt P40917)
T1 sequence: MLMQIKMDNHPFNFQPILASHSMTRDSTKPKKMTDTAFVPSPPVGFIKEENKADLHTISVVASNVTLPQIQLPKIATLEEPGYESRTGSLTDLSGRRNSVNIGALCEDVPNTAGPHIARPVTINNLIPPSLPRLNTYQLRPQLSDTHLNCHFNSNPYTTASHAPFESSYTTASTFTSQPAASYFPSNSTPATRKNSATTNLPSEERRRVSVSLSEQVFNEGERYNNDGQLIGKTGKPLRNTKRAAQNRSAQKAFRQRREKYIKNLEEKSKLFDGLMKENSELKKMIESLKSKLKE
Assay: PBM E-score (8-mer binding enrichment) (E-score (-0.5 to 0.5)); higher = stronger / more preferred TF binding
Settings: protein concentration: 100 nM; construct: GST-full length
In short: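 PURExpress in vitro transcription/translation supplied GST-tagged yeast transcription factors, either full-length or DNA-binding domain. Applied at about 100-200 nM to universal all-10-mer Agilent arrays double-stranded by primer extension, the bound protein was detected with fluorescent anti-GST. E-scores, modified Wilcoxon-Mann-Whitney statistics, were given by the Universal PBM Analysis Suite to ungapped eight-base words pooled with their reverse complements after masliner normalisation.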

| Sequence | PBM E-score |
| --- | --- |
| ATTAACTA | 0.272 |
| CCAACTGG | -0.0609 |
| CCCTTAAG | -0.0301 |
| AGTCTATC | 0.0215 |
| CTCGTGGC | -0.111 |
| CCCCGATA | -0.0326 |
| GGTGAACC | -0.108 |
| CCTAAGTA | -0.0105 |
| AACGGCCT | -0.136 |
| AGTTAGAA | 0.144 |
| CCGGTGTA | -0.14 |
| CTAAAAGA | -0.153 |
| AATAACGC | -0.0661 |
| GCTTATCA | 0.285 |
| TATATTGA | 0.287 |
| ACAACATC | 0.0575 |
| ATCCGATC | 0.215 |
| CTATGTAA | 0.167 |
| ATCGAATG | 0.207 |
| CGATCCAA | -0.108 |
| AGCACTAT | 0.103 |
| GAGGAGTA | -0.153 |

Some of the entries above, set out differently.
Sequence	PBM E-score
GGTGAACC	-0.108
CCTAAGTA	-0.0105
AACGGCCT	-0.136

The list continues:

| Sequence | PBM E-score |
| --- | --- |
| GCAACGTA | 0.0948 |
| CACACTTA | 0.109 |
| AGGCCTGA | -0.00554 |
| AGTGGCTG | 0.0976 |
| CACGAGGC | -0.0926 |
| CGGCAAAA | -0.0807 |
| GCAAAAGC | -0.0287 |
| CGGTCGTA | -0.114 |
| ACGAGGCA | -0.149 |
| CAAGGTAG | -0.0812 |
| GGGGTCCA | -0.192 |
| CAGGAGGC | -0.0869 |
| GCCATCGA | 0.0417 |
| AACTAAAC | 0.153 |
| CGCCGGAG | -0.0759 |
| ATCTAAAT | 0.149 |
| CTTCGGTC | -0.0249 |
| CTTTCGCA | -0.0314 |
| ATCGTGAC | -0.0299 |
| ATTCTCGA | 0.156 |
| GCTTAGTA | 0.227 |
| CAATTACC | 0.0856 |

Shown bar-delimited: entries from further up.
Sequence | PBM E-score
AACTAAAC | 0.153
CGCCGGAG | -0.0759
ATCTAAAT | 0.149
CTTCGGTC | -0.0249
CTTTCGCA | -0.0314

Continued:

| Sequence | PBM E-score |
| --- | --- |
| CCATAGTA | 0.178 |
| AGTGAACG | 0.0421 |
| CTGCTACC | -0.14 |
| ACTCCTTG | 0.0765 |
| ACGCTACC | -0.298 |
| AAATACGA | 0.12 |
| AGAGGCCC | -0.191 |
| ATTTTATC | 0.139 |
| AGCGATTC | 0.0462 |
| GAGGTTAA | -0.0963 |
| GCCAACCC | -0.182 |
| GCCTAAAA | -0.117 |
| CCTGCGCA | -0.191 |
| GTACCAAC | -0.0192 |
| ATCGAAAC | 0.0278 |
| CAGGCCCA | -0.269 |
| ACGCTGAC | 0.1 |
| ATCGGGTA | -0.0478 |
| TACATCGA | 0.126 |
| CTTACGCC | 0.0932 |
| CCAGTTCG | 0.0645 |
| AGGAATCC | -0.169 |

| Sequence | PBM E-score |
| --- | --- |
| GCTGTTAA | -0.00899 |
| CAGTGACG | -0.0298 |
| ACGCGTTG | 0.0265 |
| CCGTCCTA | -0.167 |
| ACAGCTAT | -0.0274 |
| CATCGACC | -0.0202 |
| GAATGATA | 0.291 |
| AAAACTCA | 0.152 |
| ACGGCACT | -0.0619 |
| CGTGTGAG | -0.065 |
| GCATTTTA | 0.158 |
| TATGAAGA | 0.153 |
| AAGCAATT | 0.142 |
| AGATGTGA | 0.229 |
| CAAGCAGG | -0.308 |
| ACGGCCAA | 0.0141 |
| AGCAACTC | -0.0584 |
| CGTCTCGC | -0.0731 |
| AATCTGAA | 0.103 |
| GCATCAGC | 0.0115 |
| TAGCATCA | 0.236 |
| TCCCAAAA | 0.0139 |

| Sequence | PBM E-score |
| --- | --- |
| AATCTAGC | -0.0585 |
| CTCCGTTC | -0.048 |
| CACAGACC | 0.115 |
| CACATAGA | -0.0472 |
| GGCGTGGA | -0.0633 |
| ACAGATCA | 0.202 |
| CACTCTCA | -0.0106 |
| GAAATTAA | 0.273 |
| CCTTACGA | -0.114 |
| ATCTCTAA | 0.118 |
| TCATAACA | 0.195 |
| ATTTATCC | 0.2 |
| AGAACCCG | 0.0494 |
| TAAAATTA | 0.178 |
| AATAACGA | 0.14 |
| CGATACCC | -0.03 |
| AGTGTTCG | 0.0791 |
| AAGGTCCT | -0.199 |
| AGACAGGC | -0.133 |
| ATACACGA | 0.0841 |
| CATACATA | 0.213 |
| AATCGAGT | 0.104 |
